Whole data set: some 33,000 sequences, median “E-score (-0.5 to 0.5)” near -0.015, cut for the highest 2% near 0.3. Some of the results follow.
Biological target: T1, Abf1 (UniProt P14164)
T1 sequence: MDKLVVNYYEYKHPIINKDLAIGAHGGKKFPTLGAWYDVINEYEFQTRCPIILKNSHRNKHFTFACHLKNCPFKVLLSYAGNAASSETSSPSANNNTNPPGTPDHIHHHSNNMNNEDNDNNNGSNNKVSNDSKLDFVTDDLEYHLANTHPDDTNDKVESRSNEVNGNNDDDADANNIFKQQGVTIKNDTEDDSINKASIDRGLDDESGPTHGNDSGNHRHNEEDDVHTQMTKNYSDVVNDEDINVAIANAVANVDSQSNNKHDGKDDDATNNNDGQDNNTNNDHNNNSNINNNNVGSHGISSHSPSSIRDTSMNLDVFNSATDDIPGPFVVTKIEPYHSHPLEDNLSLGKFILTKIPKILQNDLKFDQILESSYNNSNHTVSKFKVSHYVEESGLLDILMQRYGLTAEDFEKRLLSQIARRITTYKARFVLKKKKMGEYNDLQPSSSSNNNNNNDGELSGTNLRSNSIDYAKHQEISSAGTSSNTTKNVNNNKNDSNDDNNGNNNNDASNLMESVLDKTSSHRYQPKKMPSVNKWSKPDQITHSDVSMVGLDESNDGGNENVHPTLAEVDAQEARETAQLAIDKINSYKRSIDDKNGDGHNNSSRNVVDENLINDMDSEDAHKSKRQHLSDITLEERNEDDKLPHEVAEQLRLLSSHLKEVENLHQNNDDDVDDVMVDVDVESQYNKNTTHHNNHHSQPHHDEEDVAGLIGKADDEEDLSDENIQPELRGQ
Experiment: PBM E-score (8-mer binding enrichment) (E-score (-0.5 to 0.5)); higher = stronger / more preferred TF binding
Details: protein concentration: 200 nM; construct: GST-full length
Method in brief: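 Universal all-10-mer Agilent arrays, fresh or stripped once, were converted to double-stranded form by primer extension. GST-tagged yeast transcription factors from PURExpress in vitro transcription/translation, full-length or DNA-binding domain only, were applied at about 100-200 nM and detected with fluorescent anti-GST. After masliner normalisation, the Universal PBM Analysis Suite scored each ungapped eight-base word together with its reverse complement by E-score.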

Sequence	PBM E-score
AACCTCGT	0.117
AGACTAGG	0.0676
GGTACCTA	-0.0193
CGATTAGA	0.059
ACGCTTCC	-0.0593
ACAATGGA	0.0806
CGCTCCGA	-0.178
ACCCCCCA	-0.288
CGACTGAA	0.00453
CTGTACTC	-0.154
CGTACTAA	0.329
AGTGGGCG	-0.0758
AATCCGAC	0.0966
GGTGGCCA	-0.00405
GAAAGATA	0.181
TCTATACA	-0.058
CAAGCGTG	0
GACTAAAC	-0.00383
CGCGGATC	-0.15
CGCACAGC	0.0067
AACGGTAT	0.119
AGGACTTA	-0.292
CCTGCATA	-0.18
CCCAGTAC	-0.0125
GCCCCTCC	-0.354

Sequence	PBM E-score
AATGGGTA	0.0925
GTGATCAC	0.386
ATGGGGAA	-0.104
AATCGACC	-0.112
AGTTCCCC	-0.127
AAGTAAGG	0.142
AAAGCATC	0.0655
TACTCGAA	0.00285
GGTAAACA	-0.0751
AGCTGAAC	-0.186
AAATCTGG	0.00605
AAGGGGGC	-0.268
AGTGAAGC	-0.0888
CGTAGATA	0.213
CCGGGCAA	-0.241
AGATTGCA	0.0866
ACTGTGGG	-0.127
ATATAATG	0.248
ATCGTAGG	0.0423
CACCAGTC	-0.0323
GCGACACA	0.122
GTGTCGCA	-0.0335
GGGAGACA	-0.228
AATGTGCC	-0.0335
GCGTTACC	-0.0756

Sequence	PBM E-score
CCGCGAGC	-0.17
CGAGTGAC	0.358
GAGTAGCC	-0.187
TCCTTTAA	-0.0612
CCCGCGTC	-0.268
ACTTTGCT	0.0751
CGGGTTAC	0.167
GCGGATTA	0.0392
GCTGCAGC	-0.227
TAAGGTAA	0.0469
CGCTAGAG	-0.216
ATCATTCA	0.278
AACGGATC	0.107
CGATTAGC	0.0229
ACCCCTTA	0.0662
GGAACGAA	0.0112
GTGTAAGA	0.104
CTAGAGAG	-0.106
CTACCGTC	0.036
GAGGTGTA	-0.107
CAAGGGTG	-0.228
CTTCAGGC	-0.0909
GCTTCGAA	-0.00351
ATATGTGG	0.157
CTGCGCGA	-0.147

Sequence	PBM E-score
AGACAACT	-0.0459
AATTCGGC	-0.26
GCCTTTAA	-0.0114
GAGAGAGA	-0.0759
CGTCATAC	0.316
CGAACTAC	0.0107
ACTATAAC	0.0346
CTGAGAGC	-0.223
AGAGGTCC	-0.00762
AGATGCGC	-0.0322
ACAGTAGC	-0.129
GATTGCAA	0.0434
CGATTCGC	-0.0463
ACGTAGAC	0.0202
GCCGACGA	0.176
CCGCATAA	0.026
CCAAGAAG	-0.162
CGGCACTA	-0.158
CTGACATA	0.0493
ACTATTCG	0.0377
CTTTCGTC	0.191
AAATCTTA	0.081
TACTAGGA	-0.192
CCAATCGG	-0.254
ACCGAGCC	0.00156

Sequence	PBM E-score
AGGACACT	-0.176
CGTAAAGC	-0.162
TAATATCA	0.344
GACGAGAA	0.203
GGCGCACA	-0.14
AGAAAAGC	-0.0493
CCCGGTAG	-0.0778
TTGGGAAA	0.0816
CTCATCCA	-0.0507
ATCTTACA	0.152
AAAGGTCA	-0.00768
ATGTTGCA	0.0107
GTGCCACA	0.00181
TACAATAA	0.112
TACCATAA	-0.0141
AGCGACGA	0.175
GGGACGAC	0.157
CCTAACCA	-0.152
GCCCAATA	-0.189
ATTGTCAC	0.398
AGAGACCG	-0.0561
CCCCGCTA	-0.0213
GGTCGTTA	0.122
TCACCAGA	0.0505
GGGTAGCA	-0.122

Quoted from the results shown for reference:
Sequence	PBM E-score
CCTAACCA	-0.152
GCCCAATA	-0.189
ATTGTCAC	0.398
AGAGACCG	-0.0561
CCCCGCTA	-0.0213

(continued)

Sequence	PBM E-score
AAAGCGGA	-0.136
CATCCGAA	0.0517
CGGCCGTC	0.02
AGGCGGCG	0.00332
CACTGCCC	-0.118
CATGGAGC	-0.15
GCCGTATA	0.379
CTTGGAGC	-0.172
GCACCTCC	-0.186
ACTATCCC	0.0467
CGGGTAAG	-0.0765
CGTTAAAA	0.219
AAGAGCGC	-0.0537
GGAACACA	-0.189
ACCCCCGG	-0.32
ATCTCGTC	0.175
CCACTGCG	-0.237
AGCCCAAG	-0.219
AAAATAGT	0.138
AAATCTGT	-0.03
CAGTGTTC	-0.0641
CCTGATAC	0.143
ACAAGCGA	0.0929
GAGCGGCC	-0.239
AGGTCCAC	-0.0594

Quoted from the listing:
CGGGTAAG | PBM E-score: -0.0765
CGCACAGC | PBM E-score: 0.0067
TACTCGAA | PBM E-score: 0.00285
CCCGCGTC | PBM E-score: -0.268

(continued)

Sequence	PBM E-score
CAAGAGGC	-0.191
GATCTCTA	-0.0682
CCTTCGAC	-0.107
CACGCTGC	-0.0503
ACTTAACG	0.0106
ATGTTCGC	0.00598
AAAGCGGT	-0.032
CATGTTCC	-0.123
GCGTGCTA	0.0297
ATAGATGG	-0.26
CTGCTCTA	0.147
CACCTATG	-0.00725
ACCTGTCA	0.0221
CGGCACGA	0.278
ACACCTAG	-0.227
CGGTAGTA	0.105
CCAGTCTA	-0.227
GCTTGTGA	-0.0307
CAATTATA	0.0546
CGCCTTTA	0.0353
AAATCTAC	-0.0132
ACGGGTGC	0.0875

Source: the supplement of paper PMC3334620
